Where a chain is given by its changes, count along the chain named. Numbers in names are those of the source. No constants are given. Whether binding was seen depends on the method and setting. Each block holds one binder with its values, some of them ahead of it.
Columns and labels:
[1] = target: L37A mutant of C41L-PLB (dog) (UniProt P61012); assay: SDS-PAGE oligomerization assay with immunoblot
[2] = target: I40A mutant of C41L-PLB (dog) (UniProt P61012); assay: SDS-PAGE oligomerization assay with immunoblot

binding [1]: no binding
B1: L37A mutant of C41L-PLB (protein, UniProt P61012 1-52)
chain: MDKVQYLTRSAIRRASTIEMPQQARQNLQNLFINFCAILILLLLICIIVMLL

binding [2]: no binding
B2: I40A mutant of C41L-PLB (protein, UniProt P61012 1-52)
chain: B1 chain with A37L, I40A
